# These are yes or no findings as the source states them, for the method shown. A result given as binding can be weak or reduced; the word gives no strength. Sequences can lack the tags named with a protein.
# What was measured:
# [1] = biological target: T1, Yah1-GST fusion protein (S. cerevisiae) (UniProt Q12184); assay: BLI; Yah1^GST immobilised on anti-GST biosensors; analytes NIA (10 μM) alone, Isu1 (10 μM) alone or both; buffer BLI (40 mM HEPES–KOH pH 7.5, 5% glycerol, 100 mM KCl, 1 mM DTT, 10 mM MgCl2, 0.05% Triton X-100); room temperature; aerobic (Yah1 cluster oxidised); fits with the 2:1 heterogenous ligand model; both purified
# T1 sequence: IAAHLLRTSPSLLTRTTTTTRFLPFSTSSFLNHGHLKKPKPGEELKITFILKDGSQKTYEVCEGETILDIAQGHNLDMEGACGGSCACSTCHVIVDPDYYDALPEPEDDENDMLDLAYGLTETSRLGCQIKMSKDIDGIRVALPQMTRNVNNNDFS
# [2] = biological target: T1, Yah1-GST fusion protein (S. cerevisiae); assay: pull-down; competition: Yah1^GST (2.5 μM) with NIA (5 μM), with or without Isu1Sc or Isu1Ct (7.5 μM), then Yfh1 WT or DE/KK added (12.5 μM or increasing concentrations); glutathione resin; densitometry, amount without Yfh1 set as 100%; buffer PD; both purified
# [3] = biological target: T1, Yah1-GST fusion protein (S. cerevisiae); assay: BLI; competition: Yah1^GST on anti-GST sensors, loaded with NIA (10 μM) and Isu1Ct (10 μM), dissociation in solutions containing Yfh1 WT (increasing concentrations) or Yfh1(DE/KK) (12.5 μM); buffer BLI, room temperature; both purified
# [4] = biological target: T1, Yah1-GST fusion protein (S. cerevisiae); assay: pull-down; GST-tagged Yah1 bait (2.5 μM) incubated with NIA (5 μM or increasing) and/or Isu1 (7.5 μM) in buffer PD (40 mM Hepes–KOH pH 7.5, 5% glycerol, 100 mM KCl, 1 mM DTT, 10 mM MgCl2) 15 min at 25 °C; glutathione agarose 1 h at 4 °C; SDS-PAGE, InstantBlue, densitometry corrected for binding to GST; aerobic (Yah1 cluster oxidised); both purified
# [5] = biological target: T2, Yfh1-GST fusion protein (S. cerevisiae) (UniProt Q07540); assay: BLI; competition: Yfh1^GST on anti-GST sensors, loaded with NIA (10 μM) and Isu1Ct (10 μM), dissociation in solutions containing Yah1 WT (increasing concentrations, 40 μM) or Yah1(DD/KK) (40 μM); buffer BLI, room temperature; both purified
# T2 sequence: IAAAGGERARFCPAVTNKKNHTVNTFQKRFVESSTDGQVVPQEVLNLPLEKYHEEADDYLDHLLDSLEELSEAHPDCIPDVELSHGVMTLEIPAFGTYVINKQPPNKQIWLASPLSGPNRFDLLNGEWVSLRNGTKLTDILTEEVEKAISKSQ
# [6] = biological target: T2, Yfh1-GST fusion protein (S. cerevisiae); assay: pull-down; competition: Yfh1^GST (2.5 μM) with NIA (5 μM) and Isu1Ct (7.5 μM), then Yah1 WT (increasing concentrations, 50 μM) or Yah1(DD/KK) (50 μM) added; glutathione resin; densitometry, amount without Yah1 set as 100%; buffer PD; both purified
Substance,binding [1],binding [2],binding [3],binding [4],binding [5],binding [6]
NIA–Isu1 complex with C. thermophilum Isu1,binds,binds,binds,binds,binds,binds
Isu1 ortholog of C. thermophilum,–,–,–,no binding (tested: 7.5 μM),–,–

# — publication PMC8888459
